Test results as given in the supplement of paper PMC4604168 (melanoma cell lines).
The list shows a part of the results. Single values are uncertain, as repeats are few or missing.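 Cells were imaged in 1,536-well plates, and nuclei stained with an antibody against cleaved PARP were counted against all DNA-stained nuclei to give the apoptosis fraction. Screening doses were chosen to leave most cells alive, and resting and induced cleaved-PARP levels differ strongly between cell lines.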

Test system: COLO792
Test: cleaved PARP positive nuclei fraction relative to DMSO control; melanoma cells; higher = more apoptosis
Settings: library dose: low library concentration; 72 h

Structure (SMILES) | cleaved PARP positive nuclei fraction [%]
CCc1ccc(CCOc2ccc(CC3SC(=O)NC3=O)cc2)nc1 (centres undefined) [pioglitazone] + O=C(Nc1ccccc1)c1cc([N+](=O)[O-])ccc1Cl [GW9662] (first compound 2 µM, partner dose 2 µM) | 52.8
COc1ccc2c(c1)CCC1C2CCC2(C)C(NCCCCCCN3C(=O)C=CC3=O)CCC12 (centres undefined) + O=C(O)C(=O)Nc1sc2c(c1C(=O)O)CCNC2 [TCS401] (first compound 0.4 µM, partner dose 1.66667 µM) | 43.4
CN(C)S(=O)(=O)c1ccc2c(c1)/C(=C/c1cc3c([nH]1)CCCC3)C(=O)N2 + COc1cc(N2CCC(N3CCN(C)CC3)CC2)ccc1Nc1ncc(Cl)c(Nc2ccccc2S(=O)(=O)C(C)C)n1 [NVP-TAE684] (first compound 0.4 µM, partner dose 0.08 µM) | 259
CN(C)S(=O)(=O)c1ccc2c(c1)/C(=C/c1cc3c([nH]1)CCCC3)C(=O)N2 + N#Cc1c(O)c2c(-c3ccc(-c4ccccc4O)cc3)csc2[nH]c1=O [A769662] (first compound 0.4 µM, partner dose 2 µM) | 137
COc1ccc2c(c1)CCC1C2CCC2(C)C(NCCCCCCN3C(=O)C=CC3=O)CCC12 (centres undefined) + CC(C)CCN1c2nc(Nc3cc(F)c(O)c(F)c3)ncc2N(C)C(=O)C1C [BID1870] (first compound 0.4 µM, partner dose 0.2 µM) | 135
CCc1ccc(CCOc2ccc(CC3SC(=O)NC3=O)cc2)nc1 (centres undefined) [pioglitazone] + Oc1cc(-c2nc(-c3ccccc3)[nH]c2-c2ccncc2)ccc1Cl [L779450] (first compound 2 µM, partner dose 0.2 µM) | 66.4
CCc1ccc(CCOc2ccc(CC3SC(=O)NC3=O)cc2)nc1 (centres undefined) [pioglitazone] + CC(C)CCN1c2nc(Nc3cc(F)c(O)c(F)c3)ncc2N(C)C(=O)C1C [BID1870] (first compound 2 µM, partner dose 0.2 µM) | 76.8
CN(NC(=O)CC(=O)NN(C)C(=S)c1ccccc1)C(=S)c1ccccc1 + O=c1cc(-c2cccc3c2Sc2ccccc2S3)oc(N2CCOCC2)c1 [KU55933] (first compound 0.006 µM, partner dose 1 µM) | 126
O=C(O)c1ccc(-c2c[nH]c3ncc(-c4ccccc4)cc23)cc1C1CCCC1 + Oc1nc(-c2ccc(C(F)(F)F)cc2)nc2c1CSCC2 [XAV939] (first compound 0.16 µM, partner dose 2 µM) | 87.2
COc1ccc(COc2ccc(Cc3cnc(N)nc3N)cc2OC)cc1 + COc1cc(N2CCC(N3CCN(C)CC3)CC2)ccc1Nc1ncc(Cl)c(Nc2ccccc2S(=O)(=O)C(C)C)n1 [NVP-TAE684] (first compound 1 µM, partner dose 0.08 µM) | 131
COc1ccc2c(c1)CCC1C2CCC2(C)C(NCCCCCCN3C(=O)C=CC3=O)CCC12 (centres undefined) + c1cc(-c2cnn3cc(-c4ccc(OCCN5CCCCC5)cc4)cnc23)ccn1 [Dorsomorphin] (first compound 0.4 µM, partner dose 0.4 µM) | 140
NCC(=O)Nc1ccc(-n2nc(C(F)(F)F)cc2-c2ccc3c(ccc4ccccc43)c2)cc1 + COc1ccc(COc2ccc(Cc3cnc(N)nc3N)cc2OC)cc1 [GW2580] (first compound 1 µM, partner dose 1 µM) | 109
COc1cc2ncnc(Nc3ccc(Oc4ccccc4)cc3)c2cc1OC + COc1cc(N2CCC(N3CCN(C)CC3)CC2)ccc1Nc1ncc(Cl)c(Nc2ccccc2S(=O)(=O)C(C)C)n1 [NVP-TAE684] (first compound 2 µM, partner dose 0.08 µM) | 78.1

Test system: COLO800
Test: as above
Settings: library dose: low library concentration; 72 h

Structure (SMILES) | cleaved PARP positive nuclei fraction [%]
CN(NC(=O)CC(=O)NN(C)C(=S)c1ccccc1)C(=S)c1ccccc1 + CCCCCCCCCCCC1=C(O)C(=O)C=C(O)C1=O [Embelin] (first compound 0.006 µM, partner dose 1.2 µM) | 302
COc1ccc2c(c1)CCC1C2CCC2(C)C(NCCCCCCN3C(=O)C=CC3=O)CCC12 (centres undefined) + O=c1cc(-c2cccc3c2Sc2ccccc2S3)oc(N2CCOCC2)c1 [KU55933] (first compound 0.4 µM, partner dose 1 µM) | 111
COc1ccc2c(c1)CCC1C2CCC2(C)C(NCCCCCCN3C(=O)C=CC3=O)CCC12 (centres undefined) + Oc1nc(-c2ccc(C(F)(F)F)cc2)nc2c1CSCC2 [XAV939] (first compound 0.4 µM, partner dose 2 µM) | 66.1
O=C(O)c1ccc(-c2c[nH]c3ncc(-c4ccccc4)cc23)cc1C1CCCC1 + COc1ccc2c(c1)CCC1C2CCC2(C)C(NCCCCCCN3C(=O)C=CC3=O)CCC12 [U73122] (first compound 0.16 µM, partner dose 0.4 µM) | 131
CCc1ccc(CCOc2ccc(CC3SC(=O)NC3=O)cc2)nc1 (centres undefined) [pioglitazone] + Oc1nc(-c2ccc(C(F)(F)F)cc2)nc2c1CSCC2 [XAV939] (first compound 2 µM, partner dose 2 µM) | 102
COc1cc2c(Oc3ccc4[nH]c(C)cc4c3F)ncnc2cc1OCCCN1CCCC1 [cediranib] + COc1cc2ncnc(Nc3ccc(Oc4ccccc4)cc3)c2cc1OC [SrcI1] (first compound 0.4 µM, partner dose 2 µM) | 154
N#Cc1c(O)c2c(-c3ccc(-c4ccccc4O)cc3)csc2[nH]c1=O + COc1cc2ncnc(Nc3ccc(Oc4ccccc4)cc3)c2cc1OC [SrcI1] (first compound 2 µM, partner dose 2 µM) | 29.1
CN(NC(=O)CC(=O)NN(C)C(=S)c1ccccc1)C(=S)c1ccccc1 + CC(C)CCN1c2nc(Nc3cc(F)c(O)c(F)c3)ncc2N(C)C(=O)C1C [BID1870] (first compound 0.006 µM, partner dose 0.2 µM) | 237
CCc1ccc(CCOc2ccc(CC3SC(=O)NC3=O)cc2)nc1 (centres undefined) [pioglitazone] + N#Cc1c(O)c2c(-c3ccc(-c4ccccc4O)cc3)csc2[nH]c1=O [A769662] (first compound 2 µM, partner dose 2 µM) | 128
Oc1nc(-c2ccc(C(F)(F)F)cc2)nc2c1CSCC2 + CCCCCCCCCCCC1=C(O)C(=O)C=C(O)C1=O [Embelin] (first compound 2 µM, partner dose 1.2 µM) | 134
CCN(CC)CCCCNc1ncc2cc(-c3cc(OC)cc(OC)c3)c(NC(=O)NC(C)(C)C)nc2n1 + Cn1cc(/C=C2\C(=O)Nc3cccnc32)c2ccccc21 [GW441756] (first compound 0.1 µM, partner dose 0.4 µM) | 147
CCc1ccc(CCOc2ccc(CC3SC(=O)NC3=O)cc2)nc1 (centres undefined) [pioglitazone] + Cn1cc(/C=C2\C(=O)Nc3cccnc32)c2ccccc21 [GW441756] (first compound 2 µM, partner dose 0.4 µM) | 204
COc1ccc(COc2ccc(Cc3cnc(N)nc3N)cc2OC)cc1 + COc1cc2ncnc(Nc3ccc(Oc4ccccc4)cc3)c2cc1OC [SrcI1] (first compound 1 µM, partner dose 2 µM) | 83.6
O=S(=O)(c1ccccc1)N(CC(F)(F)F)c1ccc(C(O)(C(F)(F)F)C(F)(F)F)cc1 + COc1cc2ncnc(Nc3ccc(Oc4ccccc4)cc3)c2cc1OC [SrcI1] (first compound 1.4 µM, partner dose 2 µM) | 128
COc1ccc2c(c1)CCC1C2CCC2(C)C(NCCCCCCN3C(=O)C=CC3=O)CCC12 (centres undefined) + Cn1cc(/C=C2\C(=O)Nc3cccnc32)c2ccccc21 [GW441756] (first compound 0.4 µM, partner dose 0.4 µM) | 70.7
CN(NC(=O)CC(=O)NN(C)C(=S)c1ccccc1)C(=S)c1ccccc1 + Cc1cc([N+](=O)[O-])ccc1NS(=O)(=O)c1cc(Cl)ccc1Cl [FH535] (first compound 0.006 µM, partner dose 1 µM) | 266
N#Cc1c(O)c2c(-c3ccc(-c4ccccc4O)cc3)csc2[nH]c1=O + c1cc(-c2cnn3cc(-c4ccc(OCCN5CCCCC5)cc4)cnc23)ccn1 [Dorsomorphin] (first compound 2 µM, partner dose 0.4 µM) | 173
CCc1ccc(CCOc2ccc(CC3SC(=O)NC3=O)cc2)nc1 (centres undefined) [pioglitazone] + COc1ccc(COc2ccc(Cc3cnc(N)nc3N)cc2OC)cc1 [GW2580] (first compound 2 µM, partner dose 1 µM) | 128
COc1cc2c(Oc3ccc4[nH]c(C)cc4c3F)ncnc2cc1OCCCN1CCCC1 [cediranib] + CCc1ccc(CCOc2ccc(CC3SC(=O)NC3=O)cc2)nc1 [pioglitazone] (first compound 0.4 µM, partner dose 2 µM) | 119
COc1ccc(-c2ccc3c(N4CCOCC4)nc(N4C[C@@H](C)O[C@@H](C)C4)nc3n2)cc1CO + COc1cc2ncnc(Nc3ccc(Oc4ccccc4)cc3)c2cc1OC [SrcI1] (first compound 0.02 µM, partner dose 2 µM) | 113
O=C(O)c1ccc(-c2c[nH]c3ncc(-c4ccccc4)cc23)cc1C1CCCC1 + O=S(=O)(c1ccccc1)N(CC(F)(F)F)c1ccc(C(O)(C(F)(F)F)C(F)(F)F)cc1 [T0901317] (first compound 0.16 µM, partner dose 1.4 µM) | 202

For convenience, part of the list above.
Structure (SMILES) | cleaved PARP positive nuclei fraction [%]
Oc1nc(-c2ccc(C(F)(F)F)cc2)nc2c1CSCC2 + CCCCCCCCCCCC1=C(O)C(=O)C=C(O)C1=O [Embelin] (first compound 2 µM, partner dose 1.2 µM) | 134
CCN(CC)CCCCNc1ncc2cc(-c3cc(OC)cc(OC)c3)c(NC(=O)NC(C)(C)C)nc2n1 + Cn1cc(/C=C2\C(=O)Nc3cccnc32)c2ccccc21 [GW441756] (first compound 0.1 µM, partner dose 0.4 µM) | 147
